Results are given in words; binding and its absence hold for the method and conditions named. Binding seen in cells or lysates may run through a third protein. Some binding calls cover weakened binding; strength is not graded here.
Target: T1, AKINβ2, subunit of the Arabidopsis SnRK kinase (Arabidopsis) (UniProt Q9SCY5)
T1 sequence: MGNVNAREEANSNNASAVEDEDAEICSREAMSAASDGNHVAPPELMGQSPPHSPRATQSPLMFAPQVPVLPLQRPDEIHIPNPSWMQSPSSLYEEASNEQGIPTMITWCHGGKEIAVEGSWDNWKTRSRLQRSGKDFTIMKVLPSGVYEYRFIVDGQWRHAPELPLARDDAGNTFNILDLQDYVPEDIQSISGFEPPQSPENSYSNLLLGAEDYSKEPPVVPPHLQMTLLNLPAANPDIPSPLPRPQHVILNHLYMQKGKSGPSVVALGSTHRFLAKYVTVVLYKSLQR
Assay: split reporter; BiFC with pYFN43 and pYFC43 fusions co-infiltrated (Agrobacterium GV3101/pMP90, with p19) into N. benthamiana leaves; confocal microscopy 3 days post-infiltration, nuclei stained with DAPI

B1: AKIN10, subunit of the Arabidopsis SnRK kinase (enzyme, UniProt Q38997 1-512)
chain: MDGSGTGSRSGVESILPNYKLGRTLGIGSFGRVKIAEHALTGHKVAIKILNRRKIKNMEMEEKVRREIKILRLFMHPHIIRLYEVIETPTDIYLVMEYVNSGELFDYIVEKGRLQEDEARNFFQQIISGVEYCHRNMVVHRDLKPENLLLDSKCNVKIADFGLSNIMRDGHFLKTSCGSPNYAAPEVISGKLYAGPEVDVWSCGVILYALLCGTLPFDDENIPNLFKKIKGGIYTLPSHLSPGARDLIPRMLVVDPMKRVTIPEIRQHPWFQAHLPRYLAVPPPDTVQQAKKIDEEILQEVINMGFDRNHLIESLRNRTQNDGTVTYYLILDNRFRASSGYLGAEFQETMEGTPRMHPAESVASPVSHRLPGLMEYQGVGLRSQYPVERKWALGLQSRAHPREIMTEVLKALQDLNVCWKKIGHYNMKCRWVPNSSADGMLSNSMHDNNYFGDESSIIENEAAVKSPNVVKFEIQLYKTRDDKYLLDLQRVQGPQFLFLDLCAAFLAQLRVL
With B1 the binding was “binds”.
